Data as given in the supplement of paper PMC7661543.
The effect of the compound repeats well; differences between the knockouts mostly do not.

Test system: MDA-MB-231
Test: relative cell number vs DMSO control (72 h) (% of DMSO); higher = less growth inhibition (more cells)
Protocol: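 QMAP-Seq: a pool of 5 breast cancer cell lines (ZR-75-1, SKBR3, HCC-38, MDA-MB-231, BT-20), each carrying 12 doxycycline-inducible Cas9 sgRNA perturbations (11 knockouts plus non-targeting sgNT), was treated with compounds for 72 h at four 10-fold doses (10 nM-10 uM or 1 nM-1 uM range). Barcodes were amplified and sequenced, and cell number was interpolated from 293T spike-in standard curves. The result is expressed as % of the median of DMSO wells. Two biological replicates.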

C[C@@H]1CN(CC(=O)Nc2ccc3c(c2)Cc2cccc(-c4cc(=O)cc(N5CCOCC5)o4)c2S3)C[C@H](C)O1
Conditions | relative cell number
sgRNA knockout: sgATF3, 10 nM | 102
sgRNA knockout: sgATF3, 100 nM | 79.1
sgRNA knockout: sgATF3, 1000 nM | 115
sgRNA knockout: sgATF3, 10000 nM | 41.4
sgRNA knockout: sgATF4, 10 nM | 98.6
sgRNA knockout: sgATF4, 100 nM | 90.5
sgRNA knockout: sgATF4, 1000 nM | 128
sgRNA knockout: sgATF4, 10000 nM | 49.4
sgRNA knockout: sgATF6, 10 nM | 90.5
sgRNA knockout: sgATF6, 100 nM | 82.1
sgRNA knockout: sgATF6, 1000 nM | 81.3
sgRNA knockout: sgATF6, 10000 nM | 43
sgRNA knockout: sgATG7, 10 nM | 106
sgRNA knockout: sgATG7, 100 nM | 75.4
sgRNA knockout: sgATG7, 1000 nM | 77.1
sgRNA knockout: sgATG7, 10000 nM | 43
sgRNA knockout: sgERN1, 10 nM | 109
sgRNA knockout: sgERN1, 100 nM | 87
sgRNA knockout: sgERN1, 1000 nM | 78.73
sgRNA knockout: sgERN1, 10000 nM | 42.5
sgRNA knockout: sgHSF1, 10 nM | 99.7
sgRNA knockout: sgHSF1, 100 nM | 91.9
sgRNA knockout: sgHSF1, 1000 nM | 90.9
sgRNA knockout: sgHSF1, 10000 nM | 43.5
sgRNA knockout: sgHSF2, 10 nM | 102
sgRNA knockout: sgHSF2, 100 nM | 118
sgRNA knockout: sgHSF2, 1000 nM | 81
sgRNA knockout: sgHSF2, 10000 nM | 56.5
sgRNA knockout: sgKEAP1, 10 nM | 96.4
sgRNA knockout: sgKEAP1, 100 nM | 70.795
sgRNA knockout: sgKEAP1, 1000 nM | 92
sgRNA knockout: sgKEAP1, 10000 nM | 47.1
sgRNA knockout: sgNFE2L2, 10 nM | 76.5
sgRNA knockout: sgNFE2L2, 100 nM | 100
sgRNA knockout: sgNFE2L2, 1000 nM | 82.1
sgRNA knockout: sgNFE2L2, 10000 nM | 42.9
sgRNA knockout: sgSLC35F2, 10 nM | 78.7
sgRNA knockout: sgSLC35F2, 100 nM | 84.2
sgRNA knockout: sgSLC35F2, 1000 nM | 107
sgRNA knockout: sgSLC35F2, 10000 nM | 44.7
sgRNA knockout: sgXBP1, 10 nM | 99.3
sgRNA knockout: sgXBP1, 100 nM | 93.3
sgRNA knockout: sgXBP1, 1000 nM | 94.2
sgRNA knockout: sgXBP1, 10000 nM | 46.5

Cc1[nH]c(/C=C2\C(=O)Nc3ccc(S(=O)(=O)N(C)c4cccc(Cl)c4)cc32)c(C)c1C(=O)N1CCN(C)CC1
Conditions | relative cell number
sgRNA knockout: sgATF3, 10 nM | 109
sgRNA knockout: sgATF3, 100 nM | 82.7
sgRNA knockout: sgATF3, 1000 nM | 64.1
sgRNA knockout: sgATF3, 10000 nM | 56.9
sgRNA knockout: sgATF4, 10 nM | 95.4
sgRNA knockout: sgATF4, 100 nM | 91.7
sgRNA knockout: sgATF4, 1000 nM | 59
sgRNA knockout: sgATF4, 10000 nM | 71.5
sgRNA knockout: sgATF6, 10 nM | 84.5
sgRNA knockout: sgATF6, 100 nM | 90.8
sgRNA knockout: sgATF6, 1000 nM | 83.7
sgRNA knockout: sgATF6, 10000 nM | 49.8
sgRNA knockout: sgATG7, 10 nM | 92.7
sgRNA knockout: sgATG7, 100 nM | 86.9
sgRNA knockout: sgATG7, 1000 nM | 96.4
sgRNA knockout: sgATG7, 10000 nM | 48.7
sgRNA knockout: sgERN1, 10 nM | 105
sgRNA knockout: sgERN1, 100 nM | 108
sgRNA knockout: sgERN1, 1000 nM | 85.1
sgRNA knockout: sgERN1, 10000 nM | 39.4
sgRNA knockout: sgHSF1, 10 nM | 94.3
sgRNA knockout: sgHSF1, 100 nM | 105
sgRNA knockout: sgHSF1, 1000 nM | 87.5
sgRNA knockout: sgHSF1, 10000 nM | 50.8
sgRNA knockout: sgHSF2, 10 nM | 124
sgRNA knockout: sgHSF2, 100 nM | 99.4
sgRNA knockout: sgHSF2, 1000 nM | 91.4
sgRNA knockout: sgHSF2, 10000 nM | 37.1
sgRNA knockout: sgKEAP1, 10 nM | 101
sgRNA knockout: sgKEAP1, 100 nM | 109
sgRNA knockout: sgKEAP1, 1000 nM | 98
sgRNA knockout: sgKEAP1, 10000 nM | 56.8
sgRNA knockout: sgNFE2L2, 10 nM | 103
sgRNA knockout: sgNFE2L2, 100 nM | 102
sgRNA knockout: sgNFE2L2, 1000 nM | 113
sgRNA knockout: sgNFE2L2, 10000 nM | 49.4
sgRNA knockout: sgSLC35F2, 10 nM | 93.5
sgRNA knockout: sgSLC35F2, 100 nM | 83.3
sgRNA knockout: sgSLC35F2, 1000 nM | 96.2
sgRNA knockout: sgSLC35F2, 10000 nM | 45
sgRNA knockout: sgXBP1, 10 nM | 119
sgRNA knockout: sgXBP1, 100 nM | 108.1
sgRNA knockout: sgXBP1, 1000 nM | 76.4
sgRNA knockout: sgXBP1, 10000 nM | 45.6

OCc1ccc(-c2ccc(-c3ccc(CO)s3)o2)s1
Conditions | relative cell number
sgRNA knockout: sgATF3, 10 nM | 143
sgRNA knockout: sgATF3, 100 nM | 116
sgRNA knockout: sgATF3, 1000 nM | 80.3
sgRNA knockout: sgATF3, 10000 nM | 35.9
sgRNA knockout: sgATF4, 10 nM | 207
sgRNA knockout: sgATF4, 100 nM | 110
sgRNA knockout: sgATF4, 1000 nM | 131
sgRNA knockout: sgATF4, 10000 nM | 55
sgRNA knockout: sgATF6, 10 nM | 112
sgRNA knockout: sgATF6, 100 nM | 90.5
sgRNA knockout: sgATF6, 1000 nM | 64.3
sgRNA knockout: sgATF6, 10000 nM | 39
sgRNA knockout: sgATG7, 10 nM | 122
sgRNA knockout: sgATG7, 100 nM | 78.6
sgRNA knockout: sgATG7, 1000 nM | 106
sgRNA knockout: sgATG7, 10000 nM | 38.7
sgRNA knockout: sgERN1, 10 nM | 122
sgRNA knockout: sgERN1, 100 nM | 79.8
sgRNA knockout: sgERN1, 1000 nM | 90
sgRNA knockout: sgERN1, 10000 nM | 37.8
sgRNA knockout: sgHSF1, 10 nM | 105
sgRNA knockout: sgHSF1, 100 nM | 95
sgRNA knockout: sgHSF1, 1000 nM | 85.3
sgRNA knockout: sgHSF1, 10000 nM | 38.9
sgRNA knockout: sgHSF2, 10 nM | 104
sgRNA knockout: sgHSF2, 100 nM | 97.6
sgRNA knockout: sgHSF2, 1000 nM | 83.1
sgRNA knockout: sgHSF2, 10000 nM | 41.9
sgRNA knockout: sgKEAP1, 10 nM | 124
sgRNA knockout: sgKEAP1, 100 nM | 130
sgRNA knockout: sgKEAP1, 1000 nM | 90.1
sgRNA knockout: sgKEAP1, 10000 nM | 37.5
sgRNA knockout: sgNFE2L2, 10 nM | 110
sgRNA knockout: sgNFE2L2, 100 nM | 104
sgRNA knockout: sgNFE2L2, 1000 nM | 90.7
sgRNA knockout: sgNFE2L2, 10000 nM | 47.9
sgRNA knockout: sgSLC35F2, 10 nM | 113
sgRNA knockout: sgSLC35F2, 100 nM | 84.9
sgRNA knockout: sgSLC35F2, 1000 nM | 86.6
sgRNA knockout: sgSLC35F2, 10000 nM | 40.2
sgRNA knockout: sgXBP1, 10 nM | 118
sgRNA knockout: sgXBP1, 100 nM | 96.6
sgRNA knockout: sgXBP1, 1000 nM | 95.7
sgRNA knockout: sgXBP1, 10000 nM | 39.1
